Experimental data as given in PMC7797050.
No constants are given. Whether binding was seen depends on the method and setting. Binding seen in cells or lysates may run through a third protein. Some entries that bind do so weakly or less than the wild type.

By UniProt entry, the sequences of proteins in these tests, tags left out.
UniProt Q86U44: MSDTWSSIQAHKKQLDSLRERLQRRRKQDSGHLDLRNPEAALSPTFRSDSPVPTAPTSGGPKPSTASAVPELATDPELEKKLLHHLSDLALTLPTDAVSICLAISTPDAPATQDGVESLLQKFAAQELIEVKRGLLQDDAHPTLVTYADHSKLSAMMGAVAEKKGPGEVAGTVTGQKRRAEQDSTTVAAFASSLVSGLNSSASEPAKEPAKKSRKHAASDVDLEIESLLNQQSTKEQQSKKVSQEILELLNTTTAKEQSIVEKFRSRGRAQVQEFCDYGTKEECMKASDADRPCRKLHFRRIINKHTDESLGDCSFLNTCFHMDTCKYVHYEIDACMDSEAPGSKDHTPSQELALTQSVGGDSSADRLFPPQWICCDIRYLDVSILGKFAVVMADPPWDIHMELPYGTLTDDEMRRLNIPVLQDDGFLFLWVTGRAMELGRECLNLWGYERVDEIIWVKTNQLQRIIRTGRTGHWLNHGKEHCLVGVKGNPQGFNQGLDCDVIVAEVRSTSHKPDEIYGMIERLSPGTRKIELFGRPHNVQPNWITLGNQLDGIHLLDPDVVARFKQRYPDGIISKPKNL
UniProt O94916: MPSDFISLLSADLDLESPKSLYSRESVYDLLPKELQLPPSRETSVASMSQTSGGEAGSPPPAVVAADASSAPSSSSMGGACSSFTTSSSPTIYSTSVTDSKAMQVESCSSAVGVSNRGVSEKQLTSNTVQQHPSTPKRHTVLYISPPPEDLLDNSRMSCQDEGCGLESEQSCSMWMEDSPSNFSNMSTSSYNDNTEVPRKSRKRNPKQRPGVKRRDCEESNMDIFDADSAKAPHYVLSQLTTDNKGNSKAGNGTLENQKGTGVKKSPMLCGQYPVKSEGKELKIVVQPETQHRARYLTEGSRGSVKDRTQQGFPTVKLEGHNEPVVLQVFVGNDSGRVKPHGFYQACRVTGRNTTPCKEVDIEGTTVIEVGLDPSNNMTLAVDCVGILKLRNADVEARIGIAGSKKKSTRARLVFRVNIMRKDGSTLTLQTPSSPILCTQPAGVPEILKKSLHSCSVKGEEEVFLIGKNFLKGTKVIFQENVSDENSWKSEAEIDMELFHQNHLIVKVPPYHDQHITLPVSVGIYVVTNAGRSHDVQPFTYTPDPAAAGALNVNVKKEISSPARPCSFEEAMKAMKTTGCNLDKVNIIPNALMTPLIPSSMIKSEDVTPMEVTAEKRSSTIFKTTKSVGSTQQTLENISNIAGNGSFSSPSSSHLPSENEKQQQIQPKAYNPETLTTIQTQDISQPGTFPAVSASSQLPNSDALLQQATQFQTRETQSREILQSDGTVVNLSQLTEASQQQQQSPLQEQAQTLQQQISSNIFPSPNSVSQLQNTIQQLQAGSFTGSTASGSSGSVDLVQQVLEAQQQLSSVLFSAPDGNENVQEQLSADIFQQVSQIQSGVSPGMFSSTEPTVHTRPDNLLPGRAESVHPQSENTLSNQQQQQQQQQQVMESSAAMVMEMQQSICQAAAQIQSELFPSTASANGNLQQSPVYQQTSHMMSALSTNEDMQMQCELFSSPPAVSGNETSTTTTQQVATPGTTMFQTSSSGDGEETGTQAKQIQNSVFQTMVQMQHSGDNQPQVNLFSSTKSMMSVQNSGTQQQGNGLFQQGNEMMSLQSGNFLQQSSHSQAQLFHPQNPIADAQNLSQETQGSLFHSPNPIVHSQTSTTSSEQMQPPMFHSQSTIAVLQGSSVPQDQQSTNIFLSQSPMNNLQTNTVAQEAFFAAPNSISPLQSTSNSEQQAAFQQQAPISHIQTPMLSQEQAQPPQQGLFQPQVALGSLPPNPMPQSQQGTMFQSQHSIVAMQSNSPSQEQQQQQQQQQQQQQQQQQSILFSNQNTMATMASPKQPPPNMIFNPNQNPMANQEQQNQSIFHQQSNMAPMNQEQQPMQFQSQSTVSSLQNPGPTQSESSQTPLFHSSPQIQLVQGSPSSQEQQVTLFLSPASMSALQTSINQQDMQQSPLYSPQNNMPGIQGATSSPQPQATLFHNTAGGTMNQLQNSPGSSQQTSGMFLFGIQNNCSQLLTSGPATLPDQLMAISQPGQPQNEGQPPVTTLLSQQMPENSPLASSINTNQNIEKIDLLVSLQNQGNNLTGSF

What was measured:
[1] = target: Flag-METTL3 (WT) (human) (UniProt Q86U44); assay: co-IP; cells co-transfected with Flag-METTL3 and Myc-tagged TonEBP (WT), ΔRHD or Yc1; lysates after 24 h immunoprecipitated with anti-FLAG antibody
[2] = target: methyltransferase-like 3 (METTL3) (human (endogenous in HEK293T)) (UniProt Q86U44); assay: co-IP; endogenous proteins; HEK293T cell lysates (RIPA buffer) immunoprecipitated with anti-TonEBP antibody (control normal serum) or anti-METTL3 IgG (control normal rabbit IgG), Protein A/G Sepharose, immunoblot
[3] = target: Tonicity-responsive enhancer binding protein (TonEBP) (human (endogenous in HEK293T)) (UniProt O94916); assay: as above
[4] = target: TonEBP (co-immunoprecipitation with RNaseH1) (UniProt O94916); assay: co-IP; RNaseH1 co-immunoprecipitated with TonEBP (Supplementary Figure S12); details not shown

Myc-tagged TonEBP (WT) (from UniProt O94916 1-1531)
binding [1]: binds

Tonicity-responsive enhancer binding protein (TonEBP) (from UniProt O94916 1-1531)
binding [2]: binds

methyltransferase-like 3 (METTL3) (from UniProt Q86U44 1-580) (enzyme)
binding [3]: binds

B1: RNaseH1 (enzyme, UniProt O60930 1-286)
chain: MSWLLFLAHRVALAALPCRRGSRGFGMFYAVRRGRKTGVFLTWNECRAQVDRFPAARFKKFATEDEAWAFVRKSASPEVSEGHENQHGQESEAKASKRLREPLDGDGHESAEPYAKHMKPSVEPAPPVSRDTFSYMGDFVVVYTDGCCSSNGRRRPRAGIGVYWGPGHPLNVGIRLPGRQTNQRAEIHAACKAIEQAKTQNINKLVLYTDSMFTINGITNWVQGWKKNGWKTSAGKEVINKEDFVALERLTQGMDIQWMHVPGHSGFIGNEEADRLAREGAKQSED
binding [4]: binds
